Results are given in words; binding and its absence hold for the method and conditions named. In cells and extracts the contact can be indirect. These calls come from enrichment with a bait or labelling near it, and not all partners need be listed. For part of these data: A no says only that the protein was not detected with the bait. Where a sequence is shown, tags or fusion partners need not be part of it.
What was measured:
[1] = target: T1, NopL-GFP-TbID (Sinorhizobium fredii HH103) (UniProt P55704); test: proximity labelling; TurboID fusion (GmREM1a-GFP-TbID or NopL-GFP-TbID) co-expressed with GmNFR5-FLAG in soybean hairy roots, with or without NopL-Myc (or GmREM1a-myc); 100 μM biotin 2 h; streptavidin beads; anti-FLAG and anti-GFP blots
T1 sequence: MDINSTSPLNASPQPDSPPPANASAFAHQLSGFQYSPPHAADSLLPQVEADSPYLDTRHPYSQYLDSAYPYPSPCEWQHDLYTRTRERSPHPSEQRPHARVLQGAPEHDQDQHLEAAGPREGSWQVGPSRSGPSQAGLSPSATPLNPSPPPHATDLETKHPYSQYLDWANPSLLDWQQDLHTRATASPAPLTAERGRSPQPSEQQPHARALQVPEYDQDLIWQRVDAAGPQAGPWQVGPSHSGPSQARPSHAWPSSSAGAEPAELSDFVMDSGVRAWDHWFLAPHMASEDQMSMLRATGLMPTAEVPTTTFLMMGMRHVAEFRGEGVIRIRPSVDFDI

[2] = target: T2, His-NopL (recombinant Nodulation Outer Protein L of Sinorhizobium fredii HH103) (Sinorhizobium fredii HH103) (UniProt P55704); test: affinity purification with mass spectrometry; semi-pull-down: purified His-NopL added to protein extract of soybean root hairs (DN50, 1 dpi with HH103), caught on Ni NTA Magarose Beads, eluate analysed by LC-MS/MS; control without His-NopL; only the target purified
T2 sequence: T1 sequence

GmNFR5-FLAG (Glycine max) (receptor)
binding [1]: binds

Glycine max Remorin 1a (GmREM1a), endogenous
binding [2]: binds

GmREM1b, endogenous
binding [2]: no binding

— article PMC11239682
